The supplement of paper PMC10849652
Some of the results follow.

Sequences of proteins named here, by UniProt entry; tags and fusion partners are left off. A change or cut given only in a name is not applied to a line headed by its entry.
UniProt Q9BVK8: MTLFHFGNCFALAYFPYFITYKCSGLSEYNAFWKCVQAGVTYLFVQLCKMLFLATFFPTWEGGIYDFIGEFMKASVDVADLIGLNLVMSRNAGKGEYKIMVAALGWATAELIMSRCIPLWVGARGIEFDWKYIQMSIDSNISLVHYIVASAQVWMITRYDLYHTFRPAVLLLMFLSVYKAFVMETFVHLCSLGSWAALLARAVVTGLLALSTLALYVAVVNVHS
UniProt P49755: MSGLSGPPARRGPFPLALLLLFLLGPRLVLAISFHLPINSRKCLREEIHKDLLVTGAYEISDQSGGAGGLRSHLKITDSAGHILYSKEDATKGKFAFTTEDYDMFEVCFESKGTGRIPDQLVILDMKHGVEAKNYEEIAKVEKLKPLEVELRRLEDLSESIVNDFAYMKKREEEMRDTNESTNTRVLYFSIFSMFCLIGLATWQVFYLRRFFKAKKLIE
UniProt Q9NVH6: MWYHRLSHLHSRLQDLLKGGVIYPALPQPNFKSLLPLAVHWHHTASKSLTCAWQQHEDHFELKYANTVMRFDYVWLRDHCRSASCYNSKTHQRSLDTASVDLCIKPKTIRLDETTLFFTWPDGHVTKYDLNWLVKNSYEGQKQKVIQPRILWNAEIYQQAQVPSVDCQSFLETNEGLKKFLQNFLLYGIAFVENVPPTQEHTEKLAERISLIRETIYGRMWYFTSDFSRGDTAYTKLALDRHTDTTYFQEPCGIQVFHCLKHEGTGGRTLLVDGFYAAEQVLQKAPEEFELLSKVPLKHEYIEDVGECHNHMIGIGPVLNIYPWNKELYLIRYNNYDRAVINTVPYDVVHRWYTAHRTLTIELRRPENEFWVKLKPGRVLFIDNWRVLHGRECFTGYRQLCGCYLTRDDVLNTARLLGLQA
UniProt Q8IUX1: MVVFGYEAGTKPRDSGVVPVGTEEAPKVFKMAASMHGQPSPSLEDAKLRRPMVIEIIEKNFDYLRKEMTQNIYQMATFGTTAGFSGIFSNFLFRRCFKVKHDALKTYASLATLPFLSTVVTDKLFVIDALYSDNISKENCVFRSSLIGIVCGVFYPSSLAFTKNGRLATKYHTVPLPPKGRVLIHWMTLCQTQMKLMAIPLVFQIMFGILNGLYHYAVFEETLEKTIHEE
UniProt Q9HC07: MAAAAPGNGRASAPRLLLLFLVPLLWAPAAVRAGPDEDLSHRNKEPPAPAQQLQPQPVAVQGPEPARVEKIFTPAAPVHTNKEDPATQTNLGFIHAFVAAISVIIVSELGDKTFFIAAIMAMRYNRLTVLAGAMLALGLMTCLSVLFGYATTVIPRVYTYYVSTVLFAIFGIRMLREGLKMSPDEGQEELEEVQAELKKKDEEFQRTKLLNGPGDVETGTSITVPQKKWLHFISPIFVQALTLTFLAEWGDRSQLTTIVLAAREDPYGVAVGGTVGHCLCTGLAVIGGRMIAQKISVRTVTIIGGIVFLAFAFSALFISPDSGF
UniProt Q9H061: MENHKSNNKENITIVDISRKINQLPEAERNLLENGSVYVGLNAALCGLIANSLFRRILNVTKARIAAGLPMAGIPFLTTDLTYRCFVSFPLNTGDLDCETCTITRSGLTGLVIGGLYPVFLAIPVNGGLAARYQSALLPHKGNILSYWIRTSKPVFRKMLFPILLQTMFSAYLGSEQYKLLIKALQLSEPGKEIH
UniProt Q12893: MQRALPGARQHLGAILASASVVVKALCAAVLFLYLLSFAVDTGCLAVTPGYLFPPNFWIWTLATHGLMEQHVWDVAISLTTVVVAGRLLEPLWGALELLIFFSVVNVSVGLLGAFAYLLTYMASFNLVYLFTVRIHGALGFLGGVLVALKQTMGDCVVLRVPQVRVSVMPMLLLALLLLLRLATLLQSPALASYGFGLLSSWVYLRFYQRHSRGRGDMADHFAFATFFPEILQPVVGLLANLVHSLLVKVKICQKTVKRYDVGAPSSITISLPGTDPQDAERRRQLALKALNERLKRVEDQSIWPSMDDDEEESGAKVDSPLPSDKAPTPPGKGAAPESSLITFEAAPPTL
UniProt Q5BJF2, whole entry, looked up: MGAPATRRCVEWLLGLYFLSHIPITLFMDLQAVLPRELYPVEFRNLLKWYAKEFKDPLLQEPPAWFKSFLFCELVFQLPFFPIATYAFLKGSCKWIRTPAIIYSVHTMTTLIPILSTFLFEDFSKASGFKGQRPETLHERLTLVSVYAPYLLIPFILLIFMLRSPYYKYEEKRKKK
UniProt P82094: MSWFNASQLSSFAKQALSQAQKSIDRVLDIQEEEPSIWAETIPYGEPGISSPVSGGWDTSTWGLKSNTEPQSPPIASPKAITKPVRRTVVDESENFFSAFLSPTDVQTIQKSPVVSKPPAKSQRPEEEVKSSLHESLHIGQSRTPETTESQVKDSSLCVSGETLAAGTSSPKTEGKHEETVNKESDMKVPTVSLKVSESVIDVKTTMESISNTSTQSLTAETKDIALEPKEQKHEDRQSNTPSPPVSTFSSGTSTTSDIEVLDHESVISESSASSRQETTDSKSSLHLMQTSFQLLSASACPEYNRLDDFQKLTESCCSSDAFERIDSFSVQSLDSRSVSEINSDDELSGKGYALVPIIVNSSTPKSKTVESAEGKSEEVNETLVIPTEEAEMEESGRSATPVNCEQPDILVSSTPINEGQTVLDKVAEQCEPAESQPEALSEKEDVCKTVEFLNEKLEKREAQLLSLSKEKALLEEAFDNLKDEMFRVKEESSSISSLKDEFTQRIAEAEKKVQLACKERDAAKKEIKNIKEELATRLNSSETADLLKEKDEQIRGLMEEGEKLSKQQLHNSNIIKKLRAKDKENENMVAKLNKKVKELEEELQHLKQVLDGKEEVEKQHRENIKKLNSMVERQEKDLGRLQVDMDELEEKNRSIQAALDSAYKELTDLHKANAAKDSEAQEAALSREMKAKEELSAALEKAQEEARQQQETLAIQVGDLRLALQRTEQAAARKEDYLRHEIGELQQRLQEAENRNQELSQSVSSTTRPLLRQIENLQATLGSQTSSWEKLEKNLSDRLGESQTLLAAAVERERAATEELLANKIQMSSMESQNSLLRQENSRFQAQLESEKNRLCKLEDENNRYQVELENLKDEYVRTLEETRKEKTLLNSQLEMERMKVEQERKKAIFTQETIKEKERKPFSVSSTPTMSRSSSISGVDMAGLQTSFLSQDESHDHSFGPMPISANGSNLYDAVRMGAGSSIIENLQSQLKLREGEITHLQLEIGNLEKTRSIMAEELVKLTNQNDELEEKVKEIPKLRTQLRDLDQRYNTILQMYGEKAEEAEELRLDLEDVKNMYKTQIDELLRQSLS
UniProt Q9NVV0: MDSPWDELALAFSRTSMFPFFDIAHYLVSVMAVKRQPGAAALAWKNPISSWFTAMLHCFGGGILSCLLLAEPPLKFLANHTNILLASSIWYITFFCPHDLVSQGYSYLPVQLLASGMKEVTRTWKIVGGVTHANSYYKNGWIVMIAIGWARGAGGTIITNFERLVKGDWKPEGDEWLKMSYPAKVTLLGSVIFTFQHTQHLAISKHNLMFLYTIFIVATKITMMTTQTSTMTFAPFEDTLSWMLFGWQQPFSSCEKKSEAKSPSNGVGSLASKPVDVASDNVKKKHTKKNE
UniProt Q6UW68: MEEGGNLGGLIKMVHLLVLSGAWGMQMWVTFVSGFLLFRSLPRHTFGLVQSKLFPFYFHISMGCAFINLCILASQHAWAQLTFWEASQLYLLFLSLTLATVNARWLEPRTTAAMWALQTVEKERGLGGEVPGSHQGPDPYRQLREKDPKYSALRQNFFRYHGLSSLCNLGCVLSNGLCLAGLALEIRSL
UniProt O00206, whole entry, looked up: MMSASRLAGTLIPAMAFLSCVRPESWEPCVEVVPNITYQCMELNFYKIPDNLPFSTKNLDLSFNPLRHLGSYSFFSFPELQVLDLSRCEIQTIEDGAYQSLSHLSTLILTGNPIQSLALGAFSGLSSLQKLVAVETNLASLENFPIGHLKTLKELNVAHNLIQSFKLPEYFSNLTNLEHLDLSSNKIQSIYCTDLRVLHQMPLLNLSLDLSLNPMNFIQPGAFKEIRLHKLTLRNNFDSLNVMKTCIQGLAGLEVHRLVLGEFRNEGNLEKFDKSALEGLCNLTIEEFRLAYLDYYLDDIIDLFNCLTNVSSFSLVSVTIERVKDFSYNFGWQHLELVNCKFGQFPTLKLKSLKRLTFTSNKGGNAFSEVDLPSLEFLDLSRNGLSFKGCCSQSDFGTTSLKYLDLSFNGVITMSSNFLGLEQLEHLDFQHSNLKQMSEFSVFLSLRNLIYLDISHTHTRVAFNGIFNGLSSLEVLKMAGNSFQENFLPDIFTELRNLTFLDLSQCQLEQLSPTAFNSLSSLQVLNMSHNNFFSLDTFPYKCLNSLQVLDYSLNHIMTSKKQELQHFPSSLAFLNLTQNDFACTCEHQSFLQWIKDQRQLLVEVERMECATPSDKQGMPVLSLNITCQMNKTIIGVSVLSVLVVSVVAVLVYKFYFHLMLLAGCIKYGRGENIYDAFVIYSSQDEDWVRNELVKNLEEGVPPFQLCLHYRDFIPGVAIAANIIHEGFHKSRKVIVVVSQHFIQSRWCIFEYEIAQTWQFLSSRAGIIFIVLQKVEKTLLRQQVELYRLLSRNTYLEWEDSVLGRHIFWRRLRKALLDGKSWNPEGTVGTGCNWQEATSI
UniProt Q9Y3A6: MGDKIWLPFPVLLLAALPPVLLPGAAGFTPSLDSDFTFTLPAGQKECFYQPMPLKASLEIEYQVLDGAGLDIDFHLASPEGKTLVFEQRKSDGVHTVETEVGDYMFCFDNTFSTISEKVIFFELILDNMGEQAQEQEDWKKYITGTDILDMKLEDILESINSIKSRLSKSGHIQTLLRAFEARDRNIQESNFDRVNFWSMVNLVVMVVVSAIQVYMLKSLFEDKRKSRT
UniProt Q86UB9: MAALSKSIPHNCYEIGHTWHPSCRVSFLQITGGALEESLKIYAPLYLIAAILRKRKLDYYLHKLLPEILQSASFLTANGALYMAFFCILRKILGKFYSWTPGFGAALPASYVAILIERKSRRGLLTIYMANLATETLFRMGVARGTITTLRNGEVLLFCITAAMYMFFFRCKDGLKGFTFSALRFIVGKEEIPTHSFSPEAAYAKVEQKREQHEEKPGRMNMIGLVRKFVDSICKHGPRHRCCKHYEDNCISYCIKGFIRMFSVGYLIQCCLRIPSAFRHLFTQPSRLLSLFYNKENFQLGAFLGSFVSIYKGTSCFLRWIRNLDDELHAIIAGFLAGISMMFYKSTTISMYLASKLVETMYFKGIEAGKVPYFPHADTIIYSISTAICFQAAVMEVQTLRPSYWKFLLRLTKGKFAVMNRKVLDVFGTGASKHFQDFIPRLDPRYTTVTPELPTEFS
UniProt A5PLL7: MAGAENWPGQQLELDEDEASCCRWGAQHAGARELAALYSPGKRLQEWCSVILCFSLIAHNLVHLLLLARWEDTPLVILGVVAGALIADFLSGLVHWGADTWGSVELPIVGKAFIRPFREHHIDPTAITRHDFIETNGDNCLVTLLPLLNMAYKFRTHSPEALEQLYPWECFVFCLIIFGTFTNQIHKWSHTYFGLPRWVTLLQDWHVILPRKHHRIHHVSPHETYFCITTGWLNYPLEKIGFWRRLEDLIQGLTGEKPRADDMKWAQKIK

Key:
Experiment in all cases: log2 fold change, soluble protein after heating vs DMSO (PISA); higher = thermal stabilisation; K562 cells, 10 uM, 30 min; active = over 0.2 and 3.5 SD of the protein, either way, in both replicates (recomputed)
[1] = compound: CN1CCN(CCOc2cc(OC3CCOCC3)c3c(Nc4c(Cl)ccc5c4OCO5)ncnc3c2)CC1 [saracatinib]
In short: (§1)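 K562 cells (2×10^6 cells/mL) were treated with 10 μM compound for 30 min, and aliquots were heated for 3 min over 48°C-58°C. Pooled aliquots were extracted in PBS with 0.5% NP-40 at 4°C, and the supernatant after 21,000xg for 90 min was measured by TMTpro 16plex LC-MS/MS with channel sums equalised. Reported thermal stability, relative to control samples and from duplicates, is a log2 fold change.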

[2] = compound: CN1CCN(c2nc(C3=C(c4c[nH]c5ccccc45)C(=O)NC3=O)c3ccccc3n2)CC1 [sotrastaurin]
In short: as §1

[3] = compound: CN1CC[C@H](c2c(O)cc(O)c3c(=O)cc(-c4ccccc4Cl)oc23)[C@H](O)C1 [alvocidib]
In short: as §1

[4] = compound: CN1CCc2c(c3ccccc3n2Cc2ccc(C(=O)NO)cc2)C1 [Tubastatin A]
In short: as §1

[5] = compound: CNC(=O)C1=CC=CC=C1NC2=NC(=NC=C2Cl)NC3=C(C=C(C=C3)N4CCOCC4)OC
In short: as §1

[6] = compound: CNC(=O)c1ccc(Nc2ncc(C(F)(F)F)c(NCc3nccnc3N(C)S(C)(=O)=O)n2)cc1 [defactinib]
In short: as §1

[7] = compound: CNc1nc(-c2ccc3c(N)n[nH]c3c2)cc(N2C[C@@H](C(=O)NC3CCCCC3)CC[C@H]2C)n1
In short: as §1

[8] = compound: COC(=O)[C@H](CCSC)NC(=O)C1=C(C=C(C=C1)NC[C@H](CS)N)C2=CC=CC=C2
In short: as §1

[9] = compound: CON(C)C(=O)N1N=C(c2cc(F)ccc2F)S[C@@]1(CCCN)c1ccccc1 [filanesib]
In short: as §1

[10] = compound: CO[C@H]1C[C@@H]2CC[C@@H](C)[C@@](O)(O2)C(=O)C(=O)N2CCCC[C@H]2C(=O)O[C@H]([C@H](C)C[C@@H]2CC[C@H](n3cnnn3)[C@H](OC)C2)CC(=O)[C@H](C)/C=C(\C)[C@@H](O)[C@@H](OC)C(=O)[C@H](C)C[C@H](C)/C=C/C=C/C=C/1C [zotarolimus]
In short: as §1

[11] = compound: COc1cc(C(=O)O)ccc1NC(=O)[C@@H]1N[C@@H](CC(C)(C)C)[C@](C#N)(c2ccc(Cl)cc2F)[C@H]1c1cccc(Cl)c1F [idasanutlin]
In short: as §1

[12] = compound: COc1cc(Nc2ncc3c(n2)-c2ccc(Cl)cc2C(c2c(F)cccc2OC)=NC3)ccc1C(=O)O [alisertib]
In short: as §1

[13] = compound: COc1cc2nc(-c3cc(F)ccc3O)nc(N[C@@H]3CNC[C@H]3C(C)(C)O)c2cc1OC
In short: as §1

[14] = compound: COc1cc2ncnc(Nc3ccc(F)c(Cl)c3)c2cc1OCCCN1CCOCC1 [gefitinib]
In short: as §1

[15] = compound: COc1cccc2cc(-c3nc([C@H]4CC[C@H](C(=O)O)CC4)n4ncnc(N)c34)[nH]c12
In short: as §1

[16] = compound: CS(=O)(=O)CCNCc1ccc(-c2ccc3ncnc(Nc4ccc(OCc5cccc(F)c5)c(Cl)c4)c3c2)o1 [lapatinib]
In short: as §1

[17] = compound: CNCc1ccc(-c2[nH]c3cc(F)cc4c3c2CCNC4=O)cc1 [rucaparib]
In short: as §1

[18] = compound: COC(=O)N[C@@H](C)CNc1nccc(-c2cn(C(C)C)nc2-c2cc(Cl)cc(NS(C)(=O)=O)c2F)n1 [encorafenib]
In short: as §1

[19] = compound: COC1=CC=C(C=C1)CN2C=CC3=C2C=C(C=C3)C(=O)NO
In short: as §1

[20] = compound: CS(=O)(=O)N1CCN(Cc2cc3nc(-c4cccc5[nH]ncc45)nc(N4CCOCC4)c3s2)CC1 [pictilisib]
In short: as §1

Target | log2 fold change [1] | log2 fold change [2] | log2 fold change [3] | log2 fold change [4] | log2 fold change [5] | log2 fold change [6] | log2 fold change [7] | log2 fold change [8] | log2 fold change [9] | log2 fold change [10] | log2 fold change [11] | log2 fold change [12] | log2 fold change [13] | log2 fold change [14] | log2 fold change [15] | log2 fold change [16] | log2 fold change [17] | log2 fold change [18] | log2 fold change [19] | log2 fold change [20]
TMEM147 (UniProt Q9BVK8) | inactive: 0.132 | inactive: 0.059 | inactive: 0.023 | inactive: 0.01 | inactive: 0 | inactive: -0.125 | inactive: -0.001 | inactive: -0.021 | inactive: -0.081 | inactive: 0.222 | inactive: -0.187 | inactive: 0.143 | inactive: 0.059 | inactive: 0.096 | inactive: -0.016 | inactive: -0.112 |  |  |  | 
TMED10 (UniProt P49755) | inactive: -0.013 | inactive: 0.038 | inactive: -0.041 | inactive: -0.026 | inactive: 0.081 | inactive: -0.012 | inactive: -0.037 | inactive: -0.018 | inactive: -0.041 | inactive: 0.012 | inactive: -0.011 | inactive: -0.037 | inactive: -0.026 | inactive: 0.04 | inactive: 0.034 | inactive: -0.025 | inactive: 0.002 | inactive: -0.016 | inactive: -0.029 | inactive: 0.038
TMLHE isoform 8 (UniProt Q9NVH6) | inactive: 0.017 | inactive: -0.005 | inactive: 0.039 | inactive: 0.231 | inactive: -0.013 | inactive: 0.027 | inactive: -0.036 | inactive: 0 | inactive: -0.061 | inactive: -0.07 | inactive: -0.003 | inactive: 0 | inactive: -0.004 | inactive: -0.014 | inactive: 0.053 | inactive: -0.072 | inactive: 0.036 | inactive: 0.023 | inactive: -0.19 | inactive: 0.061
TMEM126B (UniProt Q8IUX1) | inactive: 0.053 | inactive: 0.042 | inactive: -0.033 | inactive: -0.115 | inactive: 0.024 | inactive: -0.053 | inactive: -0.075 | inactive: -0.028 | inactive: -0.114 | inactive: -0.041 | inactive: -0.013 | inactive: -0.238 |  | inactive: 0.083 | inactive: 0.211 |  | inactive: -0.138 | inactive: 0.194 | inactive: -0.023 | inactive: 0.02
TMEM165 (UniProt Q9HC07) | inactive: 0.038 | inactive: 0.03 | inactive: 0.027 | inactive: 0.06 | inactive: -0.007 | inactive: 0.044 | inactive: -0.059 | inactive: 0.102 | inactive: -0.009 | inactive: -0.137 | inactive: -0.035 | inactive: -0.045 | inactive: -0.056 | inactive: 0.018 | inactive: -0.047 | inactive: 0.022 | inactive: 0.01 | inactive: -0.021 | inactive: -0.112 | inactive: 0.092
TMEM126A (UniProt Q9H061) | inactive: -0.003 | inactive: 0.054 | inactive: 0.003 | inactive: -0.006 | inactive: -0.015 | inactive: 0 | inactive: -0.077 | inactive: 0.023 | inactive: -0.055 | inactive: 0 | inactive: -0.022 | inactive: -0.06 | inactive: -0.065 | inactive: 0.034 | inactive: 0.047 | inactive: 0.031 | inactive: -0.008 | inactive: -0.042 | inactive: 0.015 | inactive: 0.147
TMEM115 (UniProt Q12893) | inactive: 0.025 | inactive: 0.059 | inactive: 0.034 | inactive: -0.025 | inactive: -0.028 | inactive: -0.063 | inactive: 0.022 | inactive: 0.038 | inactive: -0.064 | inactive: -0.029 | inactive: -0.114 | inactive: 0.051 | inactive: -0.001 | inactive: 0.022 | inactive: 0.056 | inactive: 0.001 | inactive: -0.026 | inactive: -0.056 | inactive: -0.074 | inactive: 0.036
TMEM97 (UniProt Q5BJF2) | inactive: 0.011 | inactive: 0.087 | inactive: 0.009 | inactive: 0.091 | inactive: 0.041 | inactive: -0.021 | inactive: -0.007 | inactive: 0.039 | inactive: 0.032 | inactive: -0.002 | inactive: -0.028 | inactive: -0.065 | inactive: 0.008 | inactive: -0.014 | inactive: 0.108 | inactive: -0.016 | inactive: 0 | inactive: -0.057 | inactive: -0.078 | inactive: 0.021
TMF1 (UniProt P82094) | inactive: 0.066 | inactive: 0.025 | inactive: 0.007 | inactive: -0.016 | inactive: -0.001 | inactive: -0.002 | inactive: -0.044 | inactive: 0.017 | inactive: 0.032 | inactive: -0.014 | inactive: 0.021 | inactive: 0.007 | inactive: -0.007 | inactive: -0.01 | inactive: 0.011 | inactive: 0.011 | inactive: -0.037 | inactive: -0.045 | inactive: -0.036 | inactive: 0.027
TMEM38B (UniProt Q9NVV0) | inactive: 0.018 | inactive: 0.018 | inactive: 0.01 | inactive: 0 | inactive: -0.04 | inactive: -0.036 | inactive: -0.01 | inactive: 0.068 | inactive: 0.073 | inactive: -0.05 | inactive: -0.019 | inactive: -0.011 | inactive: -0.03 | inactive: 0.004 | inactive: 0.123 | inactive: -0.089 | inactive: 0.021 | inactive: -0.034 | inactive: -0.123 | inactive: 0.011
TMEM205 (UniProt Q6UW68) | inactive: 0.029 | inactive: 0.145 | inactive: -0.067 | inactive: 0.086 | inactive: 0.065 | inactive: 0.022 | inactive: -0.187 | inactive: 0.066 | inactive: 0.251 | inactive: -0.002 |  | inactive: -0.027 | inactive: 0.085 | inactive: 0.04 | inactive: 0.069 | inactive: -0.111 | inactive: -0.017 | inactive: -0.03 | inactive: -0.008 | inactive: -0.168
TLR4 (UniProt O00206) | inactive: -0.235 | inactive: 0.083 | inactive: 0.062 | inactive: 0.113 | inactive: -0.306 | inactive: 0.006 | inactive: -0.133 | inactive: 0.066 | inactive: -0.022 | inactive: -0.252 |  |  | inactive: 0.266 |  |  | inactive: -0.25 | inactive: -0.114 | inactive: -0.072 |  | inactive: 0.263
TMED5 (UniProt Q9Y3A6) | inactive: -0.003 | inactive: 0.029 | inactive: -0.002 | inactive: -0.024 | inactive: -0.006 | inactive: 0.001 | inactive: -0.076 | inactive: 0.002 | inactive: -0.037 | inactive: -0.038 | inactive: -0.067 | inactive: 0.037 | inactive: 0.029 | inactive: 0.006 | inactive: -0.044 | inactive: -0.018 | inactive: 0.046 | inactive: 0.031 | inactive: -0.031 | inactive: 0.105
TMEM263 (UniProt Q8WUH6) | inactive: 0.027 | inactive: -0.046 |  | inactive: -0.049 | inactive: -0.161 | inactive: 0.007 | inactive: -0.057 | inactive: -0.015 | active: -0.654 | inactive: -0.038 | inactive: -0.09 | inactive: -0.043 | active: -0.789 | inactive: -0.042 | inactive: 0.065 | inactive: -0.045 | inactive: -0.031 | inactive: 0.015 | inactive: -0.096 | inactive: -0.208
TMEM135 (UniProt Q86UB9) | inactive: 0.101 | inactive: 0.063 | inactive: -0.072 | inactive: 0.025 | inactive: -0.041 | inactive: -0.018 | inactive: 0.017 | inactive: -0.093 | inactive: -0.03 | inactive: 0.002 | inactive: 0.07 | inactive: 0.024 | inactive: -0.015 | inactive: -0.054 | inactive: 0.042 | inactive: 0.02 | inactive: -0.042 | inactive: 0.018 | inactive: -0.107 | inactive: 0.048
TMEM189 (UniProt A5PLL7) | inactive: 0.133 | inactive: 0.007 | inactive: -0.011 | inactive: 0.143 | inactive: -0.136 | inactive: -0.017 | inactive: 0.043 | inactive: -0.022 | inactive: -0.067 | inactive: 0.011 | inactive: -0.05 | inactive: 0.022 | inactive: -0.015 | inactive: -0.042 | inactive: 0.035 | inactive: 0.053 | inactive: 0.022 | inactive: 0.009 | inactive: 0.069 | inactive: -0.058

Only log2 fold change [1], for some of the entries so far:
Target	log2 fold change [1]
TMEM126A (UniProt Q9H061)	inactive: -0.003
TMEM115 (UniProt Q12893)	inactive: 0.025
